Reference: US20220313845A1 (MYTHIC THERAPEUTICS, published 2022)
These are yes or no findings as the source states them, for the method shown. Some results given as binding are weak or reduced against the parent protein; the word gives no strength.

The chains behind the UniProt entries cited, without tags or fusion partners. Where a name states a change or a piece, a line headed by the entry shows the natural chain unless it says otherwise.
UniProt Q9NYJ7: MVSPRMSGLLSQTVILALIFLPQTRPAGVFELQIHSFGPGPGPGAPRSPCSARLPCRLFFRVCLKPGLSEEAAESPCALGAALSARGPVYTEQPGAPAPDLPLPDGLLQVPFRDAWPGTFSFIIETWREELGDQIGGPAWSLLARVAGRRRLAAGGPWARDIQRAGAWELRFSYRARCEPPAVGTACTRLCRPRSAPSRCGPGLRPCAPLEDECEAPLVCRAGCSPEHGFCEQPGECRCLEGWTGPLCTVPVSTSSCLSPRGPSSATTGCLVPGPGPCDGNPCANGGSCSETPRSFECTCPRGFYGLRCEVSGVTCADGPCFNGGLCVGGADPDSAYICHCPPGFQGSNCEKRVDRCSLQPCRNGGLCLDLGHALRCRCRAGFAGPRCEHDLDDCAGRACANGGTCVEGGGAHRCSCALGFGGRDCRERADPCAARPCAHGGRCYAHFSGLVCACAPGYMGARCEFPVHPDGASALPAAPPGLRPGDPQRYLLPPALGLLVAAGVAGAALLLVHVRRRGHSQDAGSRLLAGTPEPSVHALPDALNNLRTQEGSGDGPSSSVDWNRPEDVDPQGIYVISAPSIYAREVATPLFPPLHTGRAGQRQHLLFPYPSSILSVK

Target: recombinant human DLL3 extracellular domain (R&D Systems, Cat #9749-DL) (human) (UniProt Q9NYJ7)
Experiment: phage ELISA after three rounds of panning on biotinylated recombinant human DLL3

B1: SEQ ID NO 617 (protein)
VH: EVQLVESGGLVQPGGSLRLSCAASGFNIESSYIGWVRRAPGKGEELVARIYPTNGYTRYADSVKGRFTISADTSKNTAYLQMNSLRAEDTAVYYCARYDEYDGYYYEAMDYSGQGTLVTVSS
In the case of B1, the binding is reported as “binds”.
